At least one compound was matched to its structure with a doubt left.
How the values were obtained:
[1] = system: primary rat cortical neurons; assay: STS injury, neuronal viability and cytotoxicity
[2] = system: primary rat cortical neurons; assay: H2O2 injury, neuronal viability 24 h (CellTiter-Blue); settings: 40 μM H2O2; post-treatment, any concentration tested; 24 hours post-injury
AKT = assay: Western blot of AKT activation (pAKT473); format: cell-based, rat; settings: 250 nM STS 21 hours; 125 μM AQ2S and 10 μM LY294002
Description: AKT is a key pro-survival kinase that is dysregulated by acute brain injury. Many diverse therapies used to prevent neuronal death activate AKT, including small molecules, endogenously derived survival proteins, and other non-pharmacology based treatments like therapeutic hypothermia. To further elucidate the mechanisms of AQ2S-mediated neuroprotection, the level of activated (phosphorylated) AKT was measured by western blot.
Neurons used for Western blot analysis for grown in 6-well plates. Briefly, neurons were treated with experimental compounds for the indicated time/conditions. At the end of each experiment, neurons were washed in ice cold PBS and harvested in 65 μL RIPA buffer containing protease inhibitors, phosphatase inhibitors, and EDTA. Extracts were collected in 0.5 mL tubes and sonicated for 20-30 seconds. Cell extracts were then spun at 4° C./16,000 g/10 minutes and stored at −80° C. until use. Frozen extracts were thawed on ice and protein concentration measured using the BCA assay (PIERCE). […] of sample protein was loaded per well of a 7.5% SDS precast gel (Biorad), and run for 30 minutes to 1 hour at 200 V. Kaleidoscope protein standards (Biorad) were run parallel to neuron extracts. Proteins were then transferred to PDVF membranes (run at 100 V/4° C./1.5 hours). […]

## CN(C)c1ccc(O)c2c1C[C@H]1C[C@H]3[C@H](N(C)C)C(O)=C(C(N)=O)C(=O)[C@@]3(O)C(O)=C1C2=O [minocycline, reference compound]
[1]; 250 nM STS co-administered 24 hours
  cell viability, comparison of neuroprotectants: Neither minocycline nor IGF-1 reduced neuronal death

## O=C(O)c1cc(O)c2c(c1)C(=O)c1cccc(O)c1C2=O [rhein]
[2]
  neuronal death after H2O2 injury: ineffective at any concentration tested

## O=c1cc(N2CCOCC2)oc2c(-c3ccccc3)cccc12 [LY294002, reference compound]
[1]; 250 nM STS 24 hours, 125 μM AQ2S and 10 μM LY294002
  effect on AQ2S-mediated neuroprotection: failed to block AQ2S-mediated neuroprotection
AKT
  AQ2S-induced pAKT473: AQ2S-induced pAKT473 was blocked

Reference: US10857112B2, “Small molecule inhibitors of RNA binding motif (RBM) proteins for the treatment of acute cellular injury” (University of Pittsburgh—Of the Commonwealth System of …, priority 2012, dated 2020)
